Where “and” joins values, the source holds several entries; their conditions need not be identical. Equal entries are not always repeated.
Columns and labels:
NA12878/101X gene panel = experiment: Sequencing-by-synthesis run with additive in Cleave reagent, NA12878/101X gene panel as template; settings: for % @ Q25 (MFST) / % BC / % bead retention / % live / % mapped / % perfect / % polyclonal / Avg read length / Output (Mb) / lead: additive in Cleave reagent, NA12878/101X gene panel
PhiX shot gun library = experiment: Sequencing-by-synthesis run with additive in Cleave reagent, PhiX shot gun library as template
[1] = second error rate column (values 100-fold of the first)

Row | SMILES | % @ Q25 (MFST) (NA12878/101X gene panel) | % BC (NA12878/101X gene panel) | % bead retention (NA12878/101X gene panel) | % live (NA12878/101X gene panel) | % mapped (NA12878/101X gene panel) | % perfect (NA12878/101X gene panel) | % polyclonal (NA12878/101X gene panel) | Avg read length (NA12878/101X gene panel) | Output (Mb) (NA12878/101X gene panel) | lead (NA12878/101X gene panel) | % @ Q25 (MFST) (PhiX shot gun library; additive in Cleave reagent) | % BC (PhiX shot gun library; additive in Cleave reagent) | % bead retention (PhiX shot gun library; additive in Cleave reagent) | % live (PhiX shot gun library; additive in Cleave reagent) | % mapped (PhiX shot gun library; additive in Cleave reagent) | % perfect (PhiX shot gun library; additive in Cleave reagent) | % polyclonal (PhiX shot gun library; additive in Cleave reagent) | Q @ 85% (MFST) (PhiX shot gun library; additive in Cleave reagent) | avg read length (PhiX shot gun library; additive in Cleave reagent) | lead (PhiX shot gun library; additive in Cleave reagent) | further results
1 | O=C1O[C@H]([C@@H](O)CO)C(O)=C1O [Ascorbic Acid] | 85% and 84% | 72% and 74% and 75% | 97% and 96% and 95% | 51% and 54% and 58% | 32% and 34% and 33% and 37% and 36% | 66% and 68% and 67% | 29% and 28% | 104.49 and 105.33 and 106.30 and 103.359 and 103.709 and 104.208 | 1228462334 Mb and 1283575472 Mb and 1300734915 Mb and 1327958543 Mb and 1369125970 Mb and 1378585341 Mb | 0.4249 and 0.3632 and 0.3617 and 0.4135 and 0.3825 and 0.3922 | 0.8026% and 0.8114% and 0.7956% and 0.7999% | 71% and 70% and 67% and 68% | 95% and 96% and 97% | 50% and 47% and 43% | 36% and 33% and 26% and 27% | 62% and 60% and 54% and 56% | 29% and 30% and 40% and 37% | 24.0 | 113.1077 and 113.9125 and 104.82 and 104.50 | 0.4192 and 0.4038 and 0.3506 and 0.4216 | average read length (NA12878/101X gene panel; filtered according to desired quality score, 137 and 157 cycle sequencing, both libraries): 100-115 bp; error rate (MFST) (PhiX shot gun library; [1]): 0.8847 and 0.9683 and 1.181 and 1.128
2 | CCC(=O)O.c1ccc2[nH]ccc2c1 [IPA, indole propionic acid] | 84% | 73% | 98% and 97% | 58% and 56% and 55% | 32% and 31% | 65% | 33% | 96.20 and 97.14 and 96.66 | 1140366855 Mb and 1138434690 Mb and 1136807136 Mb | 0.3855 and 0.3864 and 0.4093 | 0.8026% and 0.8114% and 0.8165% and 0.8104% and 0.7971% and 0.7987% | 66% and 65% and 68% and 67% | 97% and 98% and 96% | 38% and 37% and 42% and 41% and 39% | 24% and 28% and 27% | 58% and 59% and 63% and 60% | 35% and 25% and 31% and 32% and 30% | 24.0 | 93.1 and 94.0 and 96.6 and 97.7 and 89.3 and 90.0 | 0.3421 and 0.3039 and 0.3305 and 0.3075 and 0.3116 and 0.3374 | Beads/tile (PhiX shot gun library; additive in Cleave reagent): 416846.77 and 389958.05 and 399497.89 and 428698.34 and 419704.92 and 419932.48; lag (PhiX shot gun library; additive in Cleave reagent): 0.08923 and 0.1306 and 0.1059 and 0.1408 and 0.1183 and 0.09381; error rate (MFST) (PhiX shot gun library; first error rate column (values as fraction)): 0.01011 and 0.009678 and 0.008427 and 0.009399 and 0.009712 and 0.009516; error rate (MFST) (PhiX shot gun library; [1]): 1.011 and 0.9678 and 0.8427 and 0.9399 and 0.9712 and 0.9516
